Reference: PubChem BioAssay AID1671195 (Yale University, 2021)

Assay: 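Knockdowns that increase or decrease uptake of fluorescent LDL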 (primary screen)
Cells: human Huh7 hepatoma cells
Reagents: siRNA pool against human genes, 18 nM
Timing: about 2 to 2.5 days of knockdown, then 8 h LDL uptake
Treatment: DiI-labelled LDL at 30 µg/ml for 8 h, in lipoprotein-deficient serum medium
Measured: 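Per-cell DiI-LDL intensity by automated imaging; well means scaled to the plate median and given as a robust z-score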
Scale: robust z-score: higher = more LDL uptake after knockdown
Hit rule: 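a gene counts as active if at least two replicate z-scores exceed ±2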
The deposit covers about 22,000 reagents; below is an unselected part. In the full data, about 1,510 (6.9%) got an active call. 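Active includes knockdowns raising or lowering LDL uptake; positive z-scores mean more uptake, negative mean less.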 A number with no mark means an inactive call. No sequences are given here.

CAST
- robust z-score, replicate 1: -0.373
- robust z-score, replicate 2: -0.493
- robust z-score, replicate 3: -1.31

SAMD8
- robust z-score, replicate 1: 1.46
- robust z-score, replicate 2: 0.617
- robust z-score, replicate 3: 1.91

ATF4
- robust z-score, replicate 1: -0.613
- robust z-score, replicate 2: -0.176
- robust z-score, replicate 3: -0.501

OMD
- robust z-score, replicate 1: -0.86
- robust z-score, replicate 2: -0.33
- robust z-score, replicate 3: -0.687

C11orf52
- robust z-score, replicate 1: -0.959
- robust z-score, replicate 2: -0.644
- robust z-score, replicate 3: -0.932

CLEC2A
- robust z-score, replicate 1: -0.283
- robust z-score, replicate 2: 0.551
- robust z-score, replicate 3: -0.079

SUN2
- robust z-score, replicate 1: 0.435
- robust z-score, replicate 2: -0.0888
- robust z-score, replicate 3: -1.22

MAOB
- robust z-score, replicate 1: 0.668
- robust z-score, replicate 2: 0.598
- robust z-score, replicate 3: 0.577

ZNF562
- robust z-score, replicate 1: 0.542
- robust z-score, replicate 2: 0.691
- robust z-score, replicate 3: 0.782

RP9
- robust z-score, replicate 1: -0.788
- robust z-score, replicate 2: -1
- robust z-score, replicate 3: -0.837

PPP1R36
- robust z-score, replicate 1: -0.11
- robust z-score, replicate 2: -0.0863
- robust z-score, replicate 3: 0.56

BBS4
- robust z-score, replicate 1: -0.843
- robust z-score, replicate 2: -0.874
- robust z-score, replicate 3: -0.475

NEUROG2
- robust z-score, replicate 1: 1.33
- robust z-score, replicate 2: 1.04
- robust z-score, replicate 3: 1.22

LRRC27
- robust z-score, replicate 1: 1.52 (active)
- robust z-score, replicate 2: 2.18
- robust z-score, replicate 3: 1.99

CEP120
- robust z-score, replicate 1: -0.802
- robust z-score, replicate 2: -1.88
- robust z-score, replicate 3: 0.125

LOC441008 (retired record)
- robust z-score, replicate 1: 15.3
- robust z-score, replicate 2: 0.118
- robust z-score, replicate 3: 0.0115

2 entries from above, set out differently:
target | robust z-score, replicate 1 | robust z-score, replicate 2 | robust z-score, replicate 3
NEUROG2 | 1.33 | 1.04 | 1.22
LRRC27 | 1.52 (active) | 2.18 | 1.99
